Experimental data published in article PMC4911930.
These are yes or no findings as the source states them, for the method shown. For part of these data: In cells and extracts the contact can be indirect.

Sequences of proteins named here, by UniProt entry; tags and fusion partners are left off. Residues count along the entry.
UniProt Q8N2Z9: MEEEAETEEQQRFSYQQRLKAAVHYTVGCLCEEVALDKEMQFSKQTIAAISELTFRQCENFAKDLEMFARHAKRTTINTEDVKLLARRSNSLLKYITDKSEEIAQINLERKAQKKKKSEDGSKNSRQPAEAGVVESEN
UniProt Q9Y5B9, residues 926-965: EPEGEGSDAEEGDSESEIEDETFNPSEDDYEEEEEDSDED

How the values were obtained:
CENP-S/-X = CENP-S/-X (UniProt Q8N2Z9); experiment: condition: 2.2 mM Spt16-CTD injected into 150 µM CENP-S/-X; ITC; Spt16-CTD (amino acids 926–965; 2.2 mM) injected into 200 µL of 150 µM CENP-T/-W, human H2A/H2B or CENP S/X; 20°C; 20 mM Tris pH 7.5, 0.2 M NaCl; single-site model for CENP-T/-W, two-site model for H2A/H2B; both purified
[1] = molecular target: SSRP1 (human (endogenous in HeLa and U2OS)) (UniProt Q08945); experiment: co-IP; SSRP1 antibodies, low-salt and high-salt extracts of untagged U2OS cells; also asynchronous and S-phase-synchronized populations (Supplemental Fig. S3e)

| binding (CENP-S/-X) | binding [1] | Substance |
| --- | --- | --- |
| no binding | – | Spt16-CTD (Spt16 amino acids 926–965) (from UniProt Q9Y5B9 926-965) (domain or fragment) |
| – | no binding | CenH3^CENP-A (from UniProt P49450 1-140) (other; other documents disagree on this pair) |
| – | no binding | CENP-S (from UniProt Q8N2Z9 1-138) |
